Measured data: PubChem BioAssay AID652243 (Drosophila RNAi Screening Center, 2013)
Aim: 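Knock-downs that decrease or increase androgen receptor reporter signal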 (primary screen). Cells: Drosophila S2R+ cells. Knock-down reagent: long dsRNA against Drosophila genes. Timing: 72 h (48 h, then 24 h hormone). Challenge: synthetic androgen R1881 at 10 nM for 24 h. Detection: 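Firefly light from an androgen-responsive reporter and Renilla control light per well, raw and unnormalised, for each of two replicates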. Direction: firefly reporter light: higher = more light from androgen-responsive reporter; Renilla control light: higher = more constitutive control signal (cell number, transfection). Rule for the call: 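Hit when the log firefly-to-Renilla ratio dropped or increased by a fixed fold versus the mean of GFP or LacZ controls across duplicate plates; lowering cut given as 1.5 and as 3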. Calls: active = hit: reporter lowered or raised; inactive = no hit.
The screen tested about 24,000 reagents; shown is a random part of those with a known target gene and a result. In the full data, 246 (1%) got an active call. 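Plates not normalised; calls are printed but the firefly/Renilla ratio behind them is not deposited; fold cut for lowering reported inconsistently.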 The raw values are shown without normalisation. The numbers tell different reagents against one gene apart. Names joined by + are all predicted targets of the reagent. Not given: the amount of reagent.

| gene | dsRNA no. | firefly reporter light, replicate 1 | firefly reporter light, replicate 2 | Renilla control light, replicate 1 | Renilla control light, replicate 2 | Call |
| --- | --- | --- | --- | --- | --- | --- |
| CG17207 | 1 | 42883 | 30360 | 1.50e6 | 1.09e6 | inactive |
| msi | 1 | 2.07e5 | 3.45e5 | 1.99e6 | 1.68e6 | inactive |
| CG10051 | 1 | 91681 | 1.24e5 | 1.79e6 | 2.01e6 | inactive |
| CG4781 | 1 | 2.37e5 | 2.18e5 | 1.55e6 | 1.41e6 | inactive |
| wcy | 1 | 46623 | 73783 | 4.78e5 | 4.73e5 | inactive |
| wcy | 2 | 2.58e5 | 1.71e5 | 4.92e5 | 2.80e5 | inactive |
| GstE1 | 1 | 56782 | 1.69e5 | 1.15e6 | 1.15e6 | inactive |
| GstE1 | 2 | 5.84e5 | 3.89e5 | 5.04e5 | 4.30e5 | inactive |
| Khc | 1 | 4.30e5 | 1.24e5 | 6.07e5 | 2.80e5 | inactive |
| Khc | 2 | 4.78e5 | 2.91e5 | 3.13e5 | 2.90e5 | inactive |
| eIF3m | 1 | 1.13e6 | 8.70e5 | 1.94e6 | 1.32e6 | inactive |
| eIF3m | 2 | 3.21e5 | 3.29e5 | 3.67e5 | 3.77e5 | inactive |
| Alg14 | 1 | 4.70e5 | 3.92e5 | 2.23e6 | 2.83e6 | inactive |
| CG12576 | 1 | 2.35e5 | 1.43e5 | 5.34e5 | 4.93e5 | inactive |
| CG12576 | 2 | 2.85e5 | 3.85e5 | 3.00e5 | 5.78e5 | inactive |
| dysf | 1 | 1.46e5 | 1.64e5 | 3.26e6 | 3.03e6 | inactive |
| dysf | 2 | 2.75e5 | 2.75e5 | 2.12e6 | 1.84e6 | inactive |
| dysf | 3 | 1.91e5 | 1.89e5 | 2.70e6 | 1.93e6 | inactive |
| CG4743 | 1 | 1.88e5 | 1.92e5 | 1.94e6 | 1.73e6 | inactive |
| CG14823 | 1 | 1.10e6 | 8.21e5 | 1.74e6 | 1.39e6 | inactive |
| disco-r | 1 | 5.80e5 | 6.06e5 | 4.05e6 | 3.61e6 | inactive |
| disco-r | 2 | 6.94e5 | 5.00e5 | 3.13e6 | 1.41e6 | inactive |
| CG31368 | 1 | 1.11e5 | 1.07e5 | 1.49e6 | 1.78e6 | inactive |
| CG31368 | 2 | 74330 | 76487 | 4.94e5 | 6.39e5 | inactive |
| CG15047 | 1 | 3.73e5 | 3.66e5 | 2.36e6 | 2.41e6 | inactive |
| CG15047 | 2 | 6.72e5 | 7.68e5 | 1.80e6 | 1.65e6 | inactive |
| CG15047 | 3 | 4.03e5 | 3.90e5 | 5.80e5 | 6.19e5 | inactive |
| Chd3 | 1 | 1.12e5 | 1.66e5 | 2.31e6 | 2.12e6 | inactive |
| Chd3 | 2 | 7.08e5 | 2.92e5 | 7.70e5 | 3.89e5 | inactive |
| CG2841 | 1 | 2.83e5 | 3.24e5 | 3.10e6 | 2.84e6 | inactive |
| CG2841 | 2 | 6.82e5 | 5.63e5 | 2.25e6 | 2.45e6 | inactive |
| CG32137 | 1 | 1.64e5 | 1.23e5 | 1.97e6 | 1.61e6 | inactive |
| CG34028 | 1 | 6.33e5 | 5.26e5 | 1.75e6 | 1.34e6 | inactive |
| spoon | 1 | 83719 | 71216 | 6.65e5 | 4.17e5 | inactive |
| spoon | 2 | 5.64e5 | 5.43e5 | 5.03e5 | 5.37e5 | inactive |
| GluRIB | 1 | 2.59e5 | 2.55e5 | 3.40e6 | 2.89e6 | inactive |
| GluRIB | 2 | 2.36e5 | 2.13e5 | 2.07e6 | 9.82e5 | inactive |
| GluRIB | 3 | 5.89e5 | 5.23e5 | 5.99e5 | 4.97e5 | inactive |
| PPO3 | 1 | 8.90e5 | 8.35e5 | 1.19e6 | 1.41e6 | inactive |
| PPO3 | 2 | 5.60e5 | 2.55e5 | 4.64e5 | 4.98e5 | inactive |
| CG8191 + CG12379 | 1 | 9.77e5 | 7.31e5 | 4.09e6 | 2.56e6 | inactive |
| SMC5 | 1 | 72577 | 66985 | 4.68e5 | 4.87e5 | inactive |
| CG34275 (retired record) | 1 | 5.59e5 | 3.96e5 | 1.28e6 | 5.91e5 | inactive |
| CG14990 | 1 | 2.10e5 | 1.30e5 | 1.84e6 | 1.04e6 | inactive |
| wts | 1 | 8.48e5 | 9.13e5 | 1.00e6 | 1.01e6 | inactive |
| wts | 2 | 5.91e5 | 4.33e5 | 8.54e5 | 5.16e5 | inactive |
| wts | 3 | – | – | – | – | inactive |
| wts | 4 | – | – | – | – | inactive |
| Rab4 + CG42239 | 1 | 1.40e5 | 1.82e5 | 3.85e5 | 3.67e5 | inactive |
| CG8066 | 1 | 2.10e5 | 2.16e5 | 2.46e6 | 1.98e6 | inactive |
| CG8066 | 2 | 7.08e5 | 6.86e5 | 7.90e5 | 9.05e5 | inactive |
| 5-HT2A | 1 | 39069 | 22859 | 2.89e5 | 2.81e5 | inactive |
| Ire1 | 1 | 1.72e5 | 2.10e5 | 2.83e6 | 3.36e6 | inactive |
| Ire1 | 2 | – | – | – | – | inactive |
| Ire1 | 3 | – | – | – | – | inactive |
| Ocho | 1 | 2.74e5 | 2.50e5 | 2.32e6 | 2.16e6 | inactive |
| Ocho | 2 | 3.69e5 | 3.77e5 | 7.39e5 | 9.87e5 | inactive |
| CG3108 | 1 | 91430 | 1.08e5 | 1.14e6 | 7.18e5 | inactive |
| Mrtf | 1 | 17341 | 8606 | 6.44e5 | 3.67e5 | active |
| Mrtf | 2 | 5.47e5 | 5.46e5 | 9.06e5 | 8.35e5 | inactive |
| Mrtf | 3 | 9.02e5 | 8.26e5 | 7.79e5 | 8.53e5 | inactive |
| CG31406 | 1 | 3.63e5 | 83877 | 1.73e5 | 1.27e5 | inactive |
| CG31406 | 2 | 3.13e5 | 3.24e5 | 4.76e5 | 4.53e5 | inactive |
| CG15040 | 1 | 7.62e5 | 7.48e5 | 3.48e6 | 3.87e6 | inactive |
| CG15040 | 2 | 5.20e5 | 5.41e5 | 8.69e5 | 9.13e5 | inactive |
| CG15040 | 3 | 4.93e5 | 3.07e5 | 9.83e5 | 9.83e5 | inactive |
| ND-MLRQ | 1 | 2.55e5 | 1.55e5 | 5.42e5 | 6.04e5 | inactive |
| Usp15-31 | 1 | 6.56e5 | 9.15e5 | 1.59e6 | 1.50e6 | inactive |
| Usp15-31 | 2 | 8.26e5 | 8.20e5 | 8.49e5 | 9.72e5 | inactive |
| CG12581 | 1 | 64417 | 69461 | 4.77e5 | 4.77e5 | inactive |
| CG12581 | 2 | 58699 | 59354 | 1.57e6 | 7.83e5 | inactive |
| Polr3C | 1 | 94179 | 91311 | 6.40e5 | 7.28e5 | inactive |
| Polr3C | 2 | 4.93e5 | 7.18e5 | 1.60e6 | 1.50e6 | inactive |
| CG10151 | 1 | 4.79e5 | 5.30e5 | 2.41e6 | 2.07e6 | inactive |
| CG10151 | 2 | 2.46e5 | 3.85e5 | 7.26e5 | 7.66e5 | inactive |

Reformatted: entries from further up.
ND-MLRQ — firefly reporter light, replicate 1 = 2.55e5; firefly reporter light, replicate 2 = 1.55e5; Renilla control light, replicate 1 = 5.42e5; Renilla control light, replicate 2 = 6.04e5; Call = inactive
Usp15-31 #1 — firefly reporter light, replicate 1 = 6.56e5; firefly reporter light, replicate 2 = 9.15e5; Renilla control light, replicate 1 = 1.59e6; Renilla control light, replicate 2 = 1.50e6; Call = inactive
Usp15-31 #2 — firefly reporter light, replicate 1 = 8.26e5; firefly reporter light, replicate 2 = 8.20e5; Renilla control light, replicate 1 = 8.49e5; Renilla control light, replicate 2 = 9.72e5; Call = inactive
CG12581 #1 — firefly reporter light, replicate 1 = 64417; firefly reporter light, replicate 2 = 69461; Renilla control light, replicate 1 = 4.77e5; Renilla control light, replicate 2 = 4.77e5; Call = inactive
